Our source for the binding values is patent publication US20230036655A1 (OTSUKA PHARMACEUTICAL, published 2023).

Results are given in words; binding and its absence hold for the method and conditions named. Some entries that bind do so weakly or less than the wild type.

The target of this assay is T1, human GDF15 (hGDF15), mature, wild-type (human, UniProt Q99988 197-308).
T1 construct: Bought recombinant protein: R&D Systems 957-GD-025/CF in most assays, 9279-GD in the crystal and the GDF15/GFRAL/RET assay; It was biotinylated in the GFRAL assay; also called hGDF15 (WT); rhGDF15
T1 sequence: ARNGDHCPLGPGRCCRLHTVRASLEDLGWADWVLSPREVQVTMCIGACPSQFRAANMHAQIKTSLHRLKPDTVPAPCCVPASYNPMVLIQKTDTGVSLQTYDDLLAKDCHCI
The experiment in a line: ELISA, hGDF15 immobilised. On the technique in general: An ELISA detects its analyte on a solid surface through an enzyme-linked reagent.

B1: H48S-L7 (antibody, human IgG1, kappa, V domains shown)
VH: QVQLQESGPGLVKPSETLSLTCTVSGFSISSDCYWIWIRQPPGKGLEYIGYTFYSGITYYNPSLASRTTISRDTSKNQFSLKLSSVTAADTAVYYCARDCDYAMDYWGQGTLVTVSS
VL: DIQMTQSPSSLSASVGDRVTITCRASQDISNYLNWYQQKPGKAVKLLIHYTSTLHSGVPSRFSGSGSGTDYTLTISSLQPEDFATYFCQQGNTLPWTFGQGTKLEIKR
notes: Tested as culture supernatant; also called HuMAB2 variant H48S
Regarding B1, the binding entry was “binds”.
